Values quoted from earlier work, collected in patent US20090221069A1, “METHOD FOR AUGMENTING THE ABILITY OF T-CELLS AND OTHER CELLS FOR FIGHTING DISEASE AND INVADE DISEASED ORGANS, FOR ELEVATING CD3 ZETA AND TNF-ALPHA EXPRESSION IN T-CELLS, AND MIXING T-CELL BOOSTING AND KIT PARTICULARLY USEFUL IN SUCH METHOD” (priority 2005, published 2009).
At least one compound was matched to its structure with a doubt left.

Test system: ion channel
Conditions: from manufacturer's data sheets and/or the literature; range ends printed in different units; cited from earlier work

SMILES	effective concentrations
N#Cc1cc2[nH]c(=O)c(=O)[nH]c2cc1[N+](=O)[O-] [CNQX]	100 nM-50 μM
COC(=O)C1=C(C)NC(C)=C([N+](=O)[O-])C1c1ccccc1C(F)(F)F (stereo not drawn) [R-(+)-Bay K8644]	10 nM-1 μM
